This data set relates to NIH/3T3 cells. The data set can be described thus: FACS-based flow cytometric analysis of probe uptake with/without 11 mM D-glucose. It is filed as cell-based, murine. The protocol: FACS (Fluorescence Activated Cell Sorting)-based flow cytometric analysis was used to compare cellular uptake efficiency in NIH/3T3 cells among the glucose probe [2-(N-Cy3-piperazinoethyl)]-α-D-glucose (GB2-Cy3), synthesized in Example 2, the conventional fluorescent glucose probe 2-NBDG and the glucose probe Cy3-Glc-α, synthesized in Example 1.
NIH/3T3 cells were cultured on 10 cm cell culture dishes and transferred in a volume of 3×10^5 cells into each FACS tube (5 mL, BD). They were washed once with cold PBS before incubation at 37° C. for 30 min in 11 mM D-glucose-containing PBS or glucose-free PBS in the presence of the bioprobe [GB2-Cy3 (5 μM), 2-NBDG (5 μM or 50 μM) or Cy3-Glc-α (5 μM)]. Cells that were incubated without the bioprobes were used as a negative control. After being washed with cold PBS, 1×10^4 NIH/3T3 cells were analyzed on FACSCalibur™ (FACS-based flow cytometer). GBs-Cy3 was detected by FL2 channels. Raw data of 1×10^4 cells are shown in histograms, with the mean values thereof given in the graph of FIG. 21.
For orientation: In flow cytometry, cells or beads pass a laser one at a time.

In the case of `C[N+]1=C(/C=C/C=C2/N(CCCCC(=O)N3CCN(CCOC4OC(CO)C(O)C(O)C4O)CC3)c3ccccc3C2(C)C)C(C)(C)c2ccccc21` [GB2-Cy3, [2-(N-Cy3-piperazinoethyl)]-α-D-glucose], the “concentration at which probe competes with D-glucose for cellular uptake” value amounted to 5 µM.

(Values after patent US8772463B2, “Fluorescent dye-labeled glucose bioprobe, synthesis method and usage thereof” (SNU R&DB Foundation, priority 2007, dated 2014).)
